Measured values from the supplement of paper PMC6078165.
Values are relative to the signal before dosing, not to a vehicle control; the signal also falls without drug.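 Labels refer to human fibroblasts, largely primary: uterine (C12385, HUF), lung (H6013), bone (Hs27A), adrenal (HADF), skin (WS1), plus mammary HMF and breast cancer-associated Hs343T. Cancer lines are basal-like or mesenchymal-like triple-negative breast cancer. The paper counts as hits responses shifting over 3x the replicate standard deviation. The tissue of the other fibroblasts is not given here.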

Tested on: Hs578T
Assay: relative JC-1 red fluorescence (viability) vs pre-drug, coculture with fibroblast (fraction); higher = more viable cancer cells
Experimental: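 JC-1 labelled TNBC cells cocultured 1:1 (1,500 cells each) with CellTrace Violet stained primary or stromal fibroblasts in 384-well plates in FluoroBrite medium, treated with one of 42 anticancer drugs at 0.1, 1, 10 or 100 uM. JC-1 red fluorescence (mitochondrial integrity in cancer cells only) was read by plate reader every 8 h for 72 h. Values are normalised to each well's pre-drug value. The stock of one drug was tenfold lower, so its dose labels may be too high.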

C[C@]12CC[C@@H]3c4ccc(O)cc4C[C@@H](CCCCCCCCC[S+]([O-])CCCC(F)(F)C(F)(F)F)[C@H]3[C@@H]1CC[C@@H]2O (stereo partly drawn) [Fulvestrant]
relative JC-1 red fluorescence
Conditions	8 h	16 h	24 h	32 h	40 h	48 h	56 h	64 h	72 h
0.1 µM	0.922	0.837	0.79	0.768	0.707	0.668	0.64	0.599	0.579
1 µM	0.8687	0.7924	0.7623	0.728	0.67219	0.6285	0.61	0.5691	0.548

relative JC-1 red fluorescence
Conditions	8 h	16 h	24 h	32 h	40 h	48 h	56 h	64 h	72 h
0.1 µM, coculture fibroblast: C12385	0.8286	0.737	0.7195	0.623	0.561	0.535	0.511	0.506	0.506
0.1 µM, coculture fibroblast: H6013	0.9	0.84	0.789	0.767	0.734	0.71839	0.69	0.693	0.655
0.1 µM, coculture fibroblast: H6019	0.796	0.712	0.689	0.609	0.577	0.555	0.526	0.508	0.485
0.1 µM, coculture fibroblast: H6076	0.894	0.824	0.7791	0.7761	0.744	0.757	0.75	0.759	0.767
0.1 µM, coculture fibroblast: H6231	0.88	0.78	0.6984	0.6634	0.5921	0.5628	0.514	0.4918	0.47527
0.1 µM, coculture fibroblast: HADF	0.889	0.822	0.773	0.728	0.7	0.676	0.645	0.638	0.609
0.1 µM, coculture fibroblast: HCFa	0.887	0.849	0.775	0.729	0.671	0.643	0.602	0.573	0.526
0.1 µM, coculture fibroblast: HCPF	0.93	0.831	0.784	0.769	0.71	0.682	0.655	0.617	0.604
0.1 µM, coculture fibroblast: HHSteC	0.8892	0.813	0.735	0.69	0.619	0.582	0.548	0.523	0.48
0.1 µM, coculture fibroblast: HMF	0.8677	0.792	0.74	0.737	0.683	0.669	0.635	0.618	0.605
0.1 µM, coculture fibroblast: HPFa	0.93396	0.892	0.79979	0.73	0.676	0.635	0.5881	0.5603	0.504
0.1 µM, coculture fibroblast: HUF	0.8677	0.782	0.733	0.626	0.568	0.534	0.5	0.494	0.479
0.1 µM, coculture fibroblast: Hs27A	0.886	0.84	0.799	0.746	0.682	0.658	0.619	0.606	0.554
0.1 µM, coculture fibroblast: Hs343T	0.882	0.789	0.744	0.75	0.693	0.678	0.649	0.637	0.646
0.1 µM, coculture fibroblast: WS1	0.841	0.74593	0.716	0.639	0.589	0.582	0.556	0.559	0.562
1 µM, coculture fibroblast: C12385	0.799	0.721	0.681	0.618	0.569	0.541	0.516	0.507	0.497
1 µM, coculture fibroblast: H6013	0.876	0.8547	0.827	0.804	0.765	0.758	0.735	0.727	0.691
1 µM, coculture fibroblast: H6019	0.751	0.6888	0.674	0.588	0.564	0.538	0.51	0.4796	0.4545
1 µM, coculture fibroblast: H6076	0.927	0.875	0.831	0.814	0.762	0.747	0.7283	0.714	0.708
1 µM, coculture fibroblast: H6231	0.897	0.811	0.7763	0.733	0.68	0.645	0.604	0.578	0.564
1 µM, coculture fibroblast: HADF	0.907	0.86	0.822	0.788	0.765	0.747	0.715	0.721	0.684
1 µM, coculture fibroblast: HCFa	0.863	0.853	0.795	0.754	0.695	0.673	0.631	0.608	0.56
1 µM, coculture fibroblast: HCPF	0.918	0.844	0.8088	0.774	0.727	0.702	0.683	0.643	0.621
1 µM, coculture fibroblast: HHSteC	0.857	0.806	0.752	0.708	0.6603	0.629	0.602	0.579	0.535
1 µM, coculture fibroblast: HMF	0.895	0.86	0.826	0.801	0.747	0.718	0.691	0.667	0.649
1 µM, coculture fibroblast: HPFa	0.913	0.841	0.776	0.728	0.689	0.67	0.63	0.613	0.576
1 µM, coculture fibroblast: HUF	0.86	0.744	0.746	0.662	0.617	0.591	0.569	0.563	0.557
1 µM, coculture fibroblast: Hs27A	0.9024	0.894	0.88	0.863	0.842	0.842	0.819	0.836	0.784
1 µM, coculture fibroblast: Hs343T	0.864	0.775	0.7502	0.741	0.692	0.67429	0.66	0.648	0.646
1 µM, coculture fibroblast: WS1	0.824	0.739	0.715	0.637	0.592	0.584	0.562	0.556	0.559
